No constants are given. Whether binding was seen depends on the method and setting. In cells and extracts the contact can be indirect. Some results given as binding are weak or reduced against the parent protein; the word gives no strength.
Target: T1, 2B4 (CD244) (human (endogenous in NK-92)) (UniProt Q9BZW8)
T1 sequence: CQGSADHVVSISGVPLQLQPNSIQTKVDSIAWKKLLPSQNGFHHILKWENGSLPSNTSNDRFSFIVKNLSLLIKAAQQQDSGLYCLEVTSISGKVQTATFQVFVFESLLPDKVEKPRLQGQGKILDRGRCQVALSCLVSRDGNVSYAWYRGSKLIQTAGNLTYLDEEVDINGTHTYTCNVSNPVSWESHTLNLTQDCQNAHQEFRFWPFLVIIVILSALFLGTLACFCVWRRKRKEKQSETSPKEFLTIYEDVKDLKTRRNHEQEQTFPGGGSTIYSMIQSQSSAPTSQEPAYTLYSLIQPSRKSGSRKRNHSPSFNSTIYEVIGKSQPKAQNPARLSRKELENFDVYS
Assay: co-IP; endogenous proteins; lysates (IP lysis buffer with protease inhibitors) of NK-92 cells, uninfected, T. gondii infected, or infected and treated with anti-2B4 antibody; IP with 1 ug anti-2B4, anti-SHP-2 or anti-Fyn antibody at 4 C overnight, protein A/G-agarose beads, Western blot

Protein sequences, listed by entry. Tags and fused reporters are not part of them.
UniProt P06241: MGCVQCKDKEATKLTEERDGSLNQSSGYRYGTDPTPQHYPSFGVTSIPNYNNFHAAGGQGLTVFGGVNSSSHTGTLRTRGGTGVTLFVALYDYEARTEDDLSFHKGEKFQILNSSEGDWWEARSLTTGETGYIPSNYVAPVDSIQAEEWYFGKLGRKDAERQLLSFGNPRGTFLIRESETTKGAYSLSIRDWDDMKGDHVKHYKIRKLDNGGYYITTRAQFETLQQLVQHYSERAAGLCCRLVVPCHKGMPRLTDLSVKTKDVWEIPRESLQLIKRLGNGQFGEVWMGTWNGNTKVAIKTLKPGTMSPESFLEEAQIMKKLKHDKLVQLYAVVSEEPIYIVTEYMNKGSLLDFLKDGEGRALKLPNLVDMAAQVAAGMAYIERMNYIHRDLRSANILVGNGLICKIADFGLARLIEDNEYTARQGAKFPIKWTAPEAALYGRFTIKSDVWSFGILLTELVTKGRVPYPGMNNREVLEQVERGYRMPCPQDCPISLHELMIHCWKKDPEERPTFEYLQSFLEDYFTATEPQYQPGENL

Substance: Fyn (from UniProt P06241 1-537) (enzyme)
- binding: binds

Source: article PMC9509566
